# Measurements reported in PMC9021453.
# By UniProt entry, the sequences of proteins in these tests, tags left out. Residues count along the entry.
# UniProt Q95LA9, residues 21-784: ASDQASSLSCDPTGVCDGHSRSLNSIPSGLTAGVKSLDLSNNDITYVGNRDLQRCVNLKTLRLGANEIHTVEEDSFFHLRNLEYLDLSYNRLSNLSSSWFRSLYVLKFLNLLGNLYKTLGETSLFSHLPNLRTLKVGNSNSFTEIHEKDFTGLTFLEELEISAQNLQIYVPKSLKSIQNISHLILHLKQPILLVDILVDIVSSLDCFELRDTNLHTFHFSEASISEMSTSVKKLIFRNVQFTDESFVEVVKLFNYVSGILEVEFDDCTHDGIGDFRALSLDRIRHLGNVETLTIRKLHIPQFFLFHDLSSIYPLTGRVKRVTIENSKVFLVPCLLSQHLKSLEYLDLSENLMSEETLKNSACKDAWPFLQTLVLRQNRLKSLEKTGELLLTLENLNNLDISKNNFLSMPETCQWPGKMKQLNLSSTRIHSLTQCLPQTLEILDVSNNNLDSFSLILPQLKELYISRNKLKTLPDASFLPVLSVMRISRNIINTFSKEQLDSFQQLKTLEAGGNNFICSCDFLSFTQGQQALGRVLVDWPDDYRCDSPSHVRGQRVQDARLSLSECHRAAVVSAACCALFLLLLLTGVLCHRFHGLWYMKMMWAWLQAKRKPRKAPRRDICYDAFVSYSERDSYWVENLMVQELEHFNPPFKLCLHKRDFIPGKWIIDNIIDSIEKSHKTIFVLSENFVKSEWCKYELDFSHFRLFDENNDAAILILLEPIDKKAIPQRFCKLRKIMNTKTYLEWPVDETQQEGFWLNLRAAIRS
# No constants are given. Whether binding was seen depends on the method and setting. Binding seen in cells or lysates may run through a third protein. Some entries that bind do so weakly or less than the wild type.
# B1: Toll-like receptor 6 (receptor, UniProt Q704V6 24-793)
# chain: TIIQFSDESEFVVDMSKTSLIHVPKDLPPKTKVLDLSQNNISELHLSDISFLSGLRVLRLSHNRIQGLDISIFKFNHDLEYLDLSHNQLQKISCHPITTTLKHLDLSFNDFDALPICKEFGNLTQLNFLGLSATKLQQLDLLPIAHLHLSCILLDLEDYMKENKKESLQILNTKKLHLVFHPNSFFSVQVDISANSLGCLQLTNIKLNDYNCQVLLKFLSGLTGGPTLLNFTLNHVETTWKCLVKVFQFLWPKPIEYLNIYNLTIVESIDEEVFTYYKTTLKALKIEHITNKVFIFSQTALYTVFSEMNILMLTISDTRFIHMLCPQEPSTFKFLNFTQNSFTDSVFQNCDTLARLETLILQKNELKDLFKTSLMTKDMLSLETLDVSWNSLEYDRSNGNCSWVGSIVVLNLSSNALTDSVFRCLPPRIKVLDLHNNRIRSIPKDVTGLETLQELNLASNSLAHLPGCGIFSSLSILIIEHNSISNPSADFFQSCQKIRSLKAGNNPFQCSCELRDFIQSVGQVSSDVVEGWPESYKCDYPESYKGTPLKDFQVSELSCNTALLIITIVVPGLVLAVAVTVLCIYLDLPWYLRMVCQWTQTRRRARNVPLEELQRTLQFHAFISYSEHDSAWVKNELIPNLEKEDIRICLHERNFVAGKSIVENIINCIEKSYKSIFVLSPNFVQSEWCHYELYFAHHNLFHEGSDNLILILLDPIPQYSIPSSYHKLRALMAQRTYLEWPKEKSKHGLFWANLRASINIKLMEKAAEIH
# Molecular target: Toll-like receptor 2 (bovine (endogenous in BMECs)) (UniProt Q95LA9)
# Assay: co-IP; TLR2 primary antibody and protein A/G agarose on total protein of BMECs; cells co-cultured with M. bovis 39YC, PG45 or HB0801 for 16 h (TLR2/TLR6) or 20 h (TLR2/TLR1), control and LPS groups beside them; Western blot for TLR1 and TLR6
binder,measurement,value
B1,binding,binds
